According to PMC5432220:
Results are given in words; binding and its absence hold for the method and conditions named. Binding seen in cells or lysates may run through a third protein. Some results given as binding are weak or reduced against the parent protein; the word gives no strength.

By UniProt entry, the sequences of proteins in these tests, tags left out.
UniProt P02340: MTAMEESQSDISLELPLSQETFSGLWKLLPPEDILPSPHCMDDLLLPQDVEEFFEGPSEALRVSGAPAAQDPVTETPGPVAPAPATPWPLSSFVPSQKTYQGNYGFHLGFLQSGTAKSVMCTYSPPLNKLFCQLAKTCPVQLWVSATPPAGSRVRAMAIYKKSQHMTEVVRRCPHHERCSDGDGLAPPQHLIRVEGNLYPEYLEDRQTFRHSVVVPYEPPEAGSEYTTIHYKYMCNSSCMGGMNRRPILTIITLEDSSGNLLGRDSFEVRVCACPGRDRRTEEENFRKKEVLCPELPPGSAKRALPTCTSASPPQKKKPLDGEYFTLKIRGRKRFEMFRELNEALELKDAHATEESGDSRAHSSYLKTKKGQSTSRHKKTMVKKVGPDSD

Target: p53 (mouse (endogenous in mouse spleen)) (UniProt P02340)
Assay: co-IP; 1 mg of spleen lysate (NP-40 buffer) of wild type, 2MX-S and 8MX-S mice precipitated with anti-p53 antibody (CM5), blotted with anti-Mdm4 (MX-82) or anti-p53 (FL393); 10% of lysate as input

B1: Mdm4 (protein, UniProt O35618 1-489)
chain: MTSHSTSAQCSASDSACRISSEQISQVRPKLQLLKILHAAGAQGEVFTMKEVMHYLGQYIMVKQLYDQQEQHMVYCGGDLLGDLLGCQSFSVKDPSPLYDMLRKNLVTSASINTDAAQTLALAQDHTMDFPSQDRLKHGATEYSNPRKRTEEEDTHTLPTSRHKCRDSRADEDLIEHLSQDETSRLDLDFEEWDVAGLPWWFLGNLRNNCIPKSNGSTDLQTNQDIGTAIVSDTTDDLWFLNETVSEQLGVGIKVEAANSEQTSEVGKTSNKKTVEVGKDDDLEDSRSLSDDTDVELTSEDEWQCTECKKFNSPSKRYCFRCWALRKDWYSDCSKLTHSLSTSNITAIPEKKDNEGIDVPDCRRTISAPVVRPKDGYLKEEKPRFDPCNSVGFLDLAHSSESQEIISSAREQTDIFSEQKAETESMEDFQNVLKPCSLCEKRPRDGNIIHGKTSHLTTCFHCARRLKKSGASCPACKKEIQLVIKVFIA
With B1 the binding was “binds”.
